These are yes or no findings as the source states them, for the method shown. Some binding calls cover weakened binding; strength is not graded here. Where a sequence is shown, tags or fusion partners need not be part of it.

Protein sequences, listed by entry. Tags and fused reporters are not part of them. Lines headed by an entry give the natural chain unless they say otherwise; changes in a name come on top. Residues count along the entry.
UniProt P27986, residues 2-724: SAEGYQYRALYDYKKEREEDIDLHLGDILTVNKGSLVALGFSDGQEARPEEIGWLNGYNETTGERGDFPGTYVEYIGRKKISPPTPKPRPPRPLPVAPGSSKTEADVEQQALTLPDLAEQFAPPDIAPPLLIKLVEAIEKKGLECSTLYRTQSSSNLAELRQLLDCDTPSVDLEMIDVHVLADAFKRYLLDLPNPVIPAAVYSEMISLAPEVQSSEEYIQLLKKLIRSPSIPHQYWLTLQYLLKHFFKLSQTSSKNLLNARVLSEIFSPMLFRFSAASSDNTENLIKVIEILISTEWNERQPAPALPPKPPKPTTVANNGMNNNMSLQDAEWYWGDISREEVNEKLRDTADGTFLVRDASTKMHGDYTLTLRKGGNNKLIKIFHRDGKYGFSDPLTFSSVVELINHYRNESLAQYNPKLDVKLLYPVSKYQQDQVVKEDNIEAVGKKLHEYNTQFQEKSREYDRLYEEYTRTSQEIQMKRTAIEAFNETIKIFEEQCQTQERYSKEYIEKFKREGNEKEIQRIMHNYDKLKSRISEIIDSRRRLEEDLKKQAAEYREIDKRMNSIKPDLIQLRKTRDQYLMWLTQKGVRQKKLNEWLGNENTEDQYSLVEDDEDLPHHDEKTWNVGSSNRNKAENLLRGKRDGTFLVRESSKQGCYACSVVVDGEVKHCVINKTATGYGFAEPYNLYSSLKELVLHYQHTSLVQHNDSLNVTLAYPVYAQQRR
UniProt P62993: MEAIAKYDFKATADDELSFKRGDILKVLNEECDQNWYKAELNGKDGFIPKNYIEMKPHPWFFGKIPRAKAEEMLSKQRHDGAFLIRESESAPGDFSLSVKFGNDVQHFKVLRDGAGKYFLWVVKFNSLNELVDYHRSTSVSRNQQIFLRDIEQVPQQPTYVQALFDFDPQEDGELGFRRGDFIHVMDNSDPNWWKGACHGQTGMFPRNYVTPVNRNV

The experiment deals with T1, myc-tagged wild type LAT, stably expressed in Jurkat cells, C305 stimulated (human) (UniProt O43561).
T1 sequence (chain, tyrosine phosphorylated upon stimulation; sites not mapped): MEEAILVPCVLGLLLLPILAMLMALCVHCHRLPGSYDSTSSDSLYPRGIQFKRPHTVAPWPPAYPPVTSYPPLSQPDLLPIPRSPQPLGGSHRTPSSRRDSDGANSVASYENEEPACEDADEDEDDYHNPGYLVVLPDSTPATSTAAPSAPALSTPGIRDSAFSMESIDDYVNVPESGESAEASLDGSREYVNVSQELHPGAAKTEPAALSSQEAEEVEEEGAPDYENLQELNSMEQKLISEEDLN
Nature of the experiment: anti-myc immunoprecipitation from C305-stimulated stable Jurkat transfectants, immunoblot. A general note: A western blot detects proteins with antibodies after separation by electrophoresis.

With “p85 subunit of PI3K, endogenous, Jurkat T cells (from UniProt P27986 2-724)”, the binding entry was “binds”. For “Grb2, endogenous (293T cells and Jurkat T cells) (from UniProt P62993 1-217)”, the binding result was “binds”.

Source of the values: patent US7118889.
